Earlier results in patent US20240299457A1, “METHODS FOR TREATING DISEASE ASSOCIATED WITH SENESCENCE” (Steadman Philippon Research Institute, priority 2019, published 2024).
At least one structure is not confirmed: it was looked up by name or label, or the drawing left a doubt.

System: muscle-derived stem cells from progeroid mice
Conditions: cited from earlier work

In the case of `CO[C@H]1C[C@@H]2CC[C@@H](C)[C@@](O)(O2)C(=O)C(=O)N2CCCC[C@H]2C(=O)O[C@H]([C@H](C)C[C@@H]2CC[C@@H](O)[C@H](OC)C2)CC(=O)[C@H](C)/C=C(\C)[C@@H](O)[C@@H](OC)C(=O)[C@H](C)C[C@H](C)/C=C/C=C/C=C/1C` [rapamycin], the cellular senescence is given as “reduce” and the “myogenic and chondrogenic differentiation” value is given as “improving”.
